Test results published in paper PMC7819943, “Rice protein-binding microarrays: a tool to detect cis-acting elements near promoter regions in rice”.
Some of the results follow.

What follows are sequences tested against T1, OsSMF1 (Oryza sativa, UniProt Q6ZLB0 1-436) (assay: protein-binding microarray (RPBM); PBS, 2% BSA, 51.3 ng/ul salmon testes DNA, 50 uM zinc acetate, 200 nM TF, 25 C, 1 h; high values mean tight binding). Conditions: protein: recombinant; tags: N-terminal polyhistidine and DsRed monomer fusion (pET32a); chain copies: 2; label: CyDye5-dUTP incorporated in the synthesized complementary strand; 3' TTTTT single-stranded linker to array surface; dsDNA, one strand shown.
T1 sequence: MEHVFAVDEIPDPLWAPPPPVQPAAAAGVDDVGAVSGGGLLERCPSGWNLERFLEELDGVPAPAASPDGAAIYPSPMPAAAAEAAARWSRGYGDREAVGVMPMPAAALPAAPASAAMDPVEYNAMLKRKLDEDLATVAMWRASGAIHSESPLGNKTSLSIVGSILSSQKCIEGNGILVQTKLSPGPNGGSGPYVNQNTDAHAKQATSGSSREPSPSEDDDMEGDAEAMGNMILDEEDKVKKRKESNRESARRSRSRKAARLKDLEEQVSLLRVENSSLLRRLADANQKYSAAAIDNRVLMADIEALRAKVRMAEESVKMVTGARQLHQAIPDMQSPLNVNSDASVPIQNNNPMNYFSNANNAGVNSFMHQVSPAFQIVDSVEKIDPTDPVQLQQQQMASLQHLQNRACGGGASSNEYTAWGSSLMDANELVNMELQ
Method in brief: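 Transcription factors were each fused at the N-terminus to a polyhistidine tag plus DsRed and expressed in E. coli BL21-CodonPlus before Ni–NTA purification. Binding to a double-stranded custom Agilent array was carried out with 200 nM protein at 25 °C for 1 h in PBS, 2% BSA, salmon testes DNA and 50 µM zinc acetate. The binding signal is per-feature fluorescence intensity, in arbitrary units, on an Axon 4000B scanner.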

Sequence	binding signal
AAACATGCCGCCAAATTAAATTCGCCTAAAATACCAATCACGGAGTCACCTAGTGCAG	17000 fluorescence intensity (a.u.)
GTCGCGCCTGACGCCGCCGTTGCGCCTGCCACCGCCTGTCCGGAGTCACCTAGTGCAG	4410 fluorescence intensity (a.u.)
GATCATTACGTCCAAGTGATTTCATCCTGAAATGACGTCACGGAGTCACCTAGTGCAG	5800 fluorescence intensity (a.u.)
GCCCGTTAGAGATGAGAGTCATCCGTGACGTGCTATAATCCGGAGTCACCTAGTGCAG	3540 fluorescence intensity (a.u.)
ACCTGAAGACACGTGTGGTCTATCTGAGCTTTGTGATCAGCGGAGTCACCTAGTGCAG	9840 fluorescence intensity (a.u.)
GGGGAAAGAAAGGGTGTGACGTGGCATCCTGACATGTGGGCGGAGTCACCTAGTGCAG	12600 fluorescence intensity (a.u.)
GCAACGACGGCGGCGGCGGCGAGCTCGATGGGCGATGACGCGGAGTCACCTAGTGCAG	3400 fluorescence intensity (a.u.)
AAATCGGCGCATTACTAGCACGGCGCCACGGCCACGCGCACGGAGTCACCTAGTGCAG	3470 fluorescence intensity (a.u.)
AGGTTAGCAACTATGAATCACAATAAGTTAGAGCACGTACCGGAGTCACCTAGTGCAG	3400 fluorescence intensity (a.u.)
GAGTCGCCGCCTTGCGCCCTCGCCAGTCACCCTGCGCGTTCGGAGTCACCTAGTGCAG	4680 fluorescence intensity (a.u.)
TGAAAGGTACAGACAGACAGACAAACAGCAGTGGTCGCCACGGAGTCACCTAGTGCAG	9780 fluorescence intensity (a.u.)
AATTGCCAGTTTGCCACGGTGCGCTGAATTACTAGATTCGCGGAGTCACCTAGTGCAG	3680 fluorescence intensity (a.u.)
TTCTGTAACATAGGCTAACGTCAACGTGGCATTCATTTTGCGGAGTCACCTAGTGCAG	13200 fluorescence intensity (a.u.)
TTTGCCGCATCCCCTCATCTGACACGAAATTTGGTAGAGTCGGAGTCACCTAGTGCAG	4120 fluorescence intensity (a.u.)
TTGAGGAAATAAGAGGAGTGTGACAAAGCATCAGTTGCATCGGAGTCACCTAGTGCAG	3260 fluorescence intensity (a.u.)
ACATACGTTTGGATTGCCAACCGTGACAAGCCGATCACTGCGGAGTCACCTAGTGCAG	3400 fluorescence intensity (a.u.)
GACACACCGTTTAGTAGTTTGGAAAGCGTGCGTGTGGAAACGGAGTCACCTAGTGCAG	26300 fluorescence intensity (a.u.)
GCACTTCGGAAGGCGATTCTGAGGTCGACCTCGGGAAGGTCGGAGTCACCTAGTGCAG	3150 fluorescence intensity (a.u.)
TGGACTAGGATGTGTCTCATCTAGTCATAAGTTGTTATATCGGAGTCACCTAGTGCAG	4210 fluorescence intensity (a.u.)
TACTTCTACCTACCTTACCAAGTCCTGACAGTTACAACGTCGGAGTCACCTAGTGCAG	55400 fluorescence intensity (a.u.)
TATGTAGGGAGAGCCCTGACCTGCCATCATCATCAATCATCGGAGTCACCTAGTGCAG	36600 fluorescence intensity (a.u.)

A second format for part of the listing above.
Sequence,binding signal
GACACACCGTTTAGTAGTTTGGAAAGCGTGCGTGTGGAAACGGAGTCACCTAGTGCAG,26300 fluorescence intensity (a.u.)
GCACTTCGGAAGGCGATTCTGAGGTCGACCTCGGGAAGGTCGGAGTCACCTAGTGCAG,3150 fluorescence intensity (a.u.)
TGGACTAGGATGTGTCTCATCTAGTCATAAGTTGTTATATCGGAGTCACCTAGTGCAG,4210 fluorescence intensity (a.u.)

Next records.

Sequence	binding signal
CCCGGGGTGCGCCGGGTCGGCCGCCAGCGCGGCGTCGCAGCGGAGTCACCTAGTGCAG	4470 fluorescence intensity (a.u.)
ATCGTTCTCGGCGGCGATCACCTTAGTCAGCCTCTGCTTCCGGAGTCACCTAGTGCAG	4730 fluorescence intensity (a.u.)
CGATCGATTCGCTCTCTCGCCGCCGCCGCCGCAGCTGACGCGGAGTCACCTAGTGCAG	3190 fluorescence intensity (a.u.)
CGTATTTGGGATACGTTATTACGTCATCCCTTATTACATCCGGAGTCACCTAGTGCAG	9390 fluorescence intensity (a.u.)
GGATACCTGATATCTGTTGTGGTACTAGCTGCATGGTACCCGGAGTCACCTAGTGCAG	3380 fluorescence intensity (a.u.)
GTGAATCAATTACATGTCCACATGCTCCATACTGGTATCTCGGAGTCACCTAGTGCAG	15300 fluorescence intensity (a.u.)
CTCCTCCTCTCACCTGACGACCTGACCCTTCTTCTTCCTCCGGAGTCACCTAGTGCAG	3200 fluorescence intensity (a.u.)
GGATCACTACATTCAACAAAATATGTACCGTCATATCCCACGGAGTCACCTAGTGCAG	3530 fluorescence intensity (a.u.)
ATCTCAATCTCAGGTTTGATGAAAACGACCACGTCATCGGCGGAGTCACCTAGTGCAG	21800 fluorescence intensity (a.u.)
GCGCTGCGCGTCCGCGGCTGACTGCGCTGACGCCCGCGGCCGGAGTCACCTAGTGCAG	4730 fluorescence intensity (a.u.)
TTCTCCGGTGCCATGTGTGCAGCGGCGGCGGCAGCGCGCCCGGAGTCACCTAGTGCAG	3610 fluorescence intensity (a.u.)
TGAGGTGAGGTGCGTGGCCCTTGGACTTTCGAGGCGAAACCGGAGTCACCTAGTGCAG	3570 fluorescence intensity (a.u.)
CAATCCAGCATCAAAACCGATGGTTTTGGAACACGACGGACGGAGTCACCTAGTGCAG	3190 fluorescence intensity (a.u.)
AAGTCGGCGATCGCCGGAGAGGCGGCCGGAGGCGGTGGAGCGGAGTCACCTAGTGCAG	3860 fluorescence intensity (a.u.)
ATTTACAACCAGGTCCTCAACCTCCACGTCGCTCACCGTCCGGAGTCACCTAGTGCAG	4880 fluorescence intensity (a.u.)
TAAACTCCCTGCAAACGCTCTCAACCTGTCGCATGCGTGGCGGAGTCACCTAGTGCAG	4680 fluorescence intensity (a.u.)
TCCTCTTCTCCTCCGCCGCATCAGCAATCTCTCTTTCTACCGGAGTCACCTAGTGCAG	4100 fluorescence intensity (a.u.)
ACAACATTAACACCACTGAGCACACACTGCGCGTAGCAAACGGAGTCACCTAGTGCAG	23300 fluorescence intensity (a.u.)
TTCTTCCTATATAAGCACAACACACGTCCTTACTTGTGTGCGGAGTCACCTAGTGCAG	5410 fluorescence intensity (a.u.)
CTCATCTCTCGCCCAATCCGGGCCTCACGATGACACCTCGCGGAGTCACCTAGTGCAG	4480 fluorescence intensity (a.u.)
GTGACTAGTTACCTGTGACGAGATGCAACCGGATGGCCCGCGGAGTCACCTAGTGCAG	3990 fluorescence intensity (a.u.)
